Structures can show the parent of a compound that is named as a salt. The list shows a part of the results. Most values lie at the level of the controls, where differences are scatter.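 Using flow cytometry, the assay measures the median γH2AX antibody signal in S-phase Reh cells (a human leukemia line). Each score is the number of standard deviations from the median difference of paired plate sets. Candidate hits scored above 2.5; compounds scoring below -2 lowered MK1775-induced damage.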
Test system: Reh
Assay: Z' of S-phase gammaH2AX difference (drug + MK1775 minus drug alone) (Z-score); higher = stronger synergistic S-phase DNA damage with MK1775
Conditions: MK1775 concentration 400 nM; first compound 10 µM; 4 h

| SMILES | Z' of S-phase gammaH2AX difference (Z-score) |
| --- | --- |
| CNNCc1ccc(C(=O)NC(C)C)cc1 [Procarbazine hydrochloride (Matulane)] + C=CCn1c(=O)c2cnc(Nc3ccc(N4CCN(C)CC4)cc3)nc2n1-c1cccc(C(C)(C)O)n1 [MK1775] | inactive: 0.231 |
| CC(=O)Oc1cc(C(C)C)c(OCCN(C)C)cc1C [Moxisylyte hydrochloride] + C=CCn1c(=O)c2cnc(Nc3ccc(N4CCN(C)CC4)cc3)nc2n1-c1cccc(C(C)(C)O)n1 [MK1775] | inactive: 0.0825 |
| CC(c1cc2ccccc2s1)N(O)C(N)=O (centres undefined) [Zileuton] + C=CCn1c(=O)c2cnc(Nc3ccc(N4CCN(C)CC4)cc3)nc2n1-c1cccc(C(C)(C)O)n1 [MK1775] | inactive: 0.162 |
| CC1=C(/C=C/C(C)=C/C=C/C(C)=C/C(=O)Nc2ccc(O)cc2)C(C)(C)CCC1 [Retinoic acid p-hydroxyanilide] + C=CCn1c(=O)c2cnc(Nc3ccc(N4CCN(C)CC4)cc3)nc2n1-c1cccc(C(C)(C)O)n1 [MK1775] | inactive: -0.585 |
| CC1=C(/C=C/C(C)=C/C=C/C(C)=C/C(=O)Nc2ccc(O)cc2)C(C)(C)CCC1 [Fenretinide] + C=CCn1c(=O)c2cnc(Nc3ccc(N4CCN(C)CC4)cc3)nc2n1-c1cccc(C(C)(C)O)n1 [MK1775] | inactive: -0.319 |
| COc1cc2c(cc1OC)[C@@H](c1ccccc1)CN(C)CC2 + C=CCn1c(=O)c2cnc(Nc3ccc(N4CCN(C)CC4)cc3)nc2n1-c1cccc(C(C)(C)O)n1 [MK1775] | inactive: -0.2 |
| Cn1cc(C(=O)OCC2CCN(CCNS(C)(=O)=O)CC2)c2ccccc21 + C=CCn1c(=O)c2cnc(Nc3ccc(N4CCN(C)CC4)cc3)nc2n1-c1cccc(C(C)(C)O)n1 [MK1775] | inactive: -0.147 |
| CNCC[C@H](Oc1ccc(C(F)(F)F)cc1)c1ccccc1 [S-(+)-Fluoxetine hydrochloride] + C=CCn1c(=O)c2cnc(Nc3ccc(N4CCN(C)CC4)cc3)nc2n1-c1cccc(C(C)(C)O)n1 [MK1775] | inactive: -0.785 |
| CC(=O)OCC(=O)[C@@]1(O)CC[C@H]2[C@@H]3CCC4=CC(=O)CC[C@]4(C)[C@H]3C(=O)C[C@@]21C [Cortisone 21-acetate] + C=CCn1c(=O)c2cnc(Nc3ccc(N4CCN(C)CC4)cc3)nc2n1-c1cccc(C(C)(C)O)n1 [MK1775] | inactive: -0.02 |
| O=C1c2ccccc2C(=O)c2c(NCCc3ccc(O)cc3)ccc(NCCc3ccc(O)cc3)c21 + C=CCn1c(=O)c2cnc(Nc3ccc(N4CCN(C)CC4)cc3)nc2n1-c1cccc(C(C)(C)O)n1 [MK1775] | inactive: -0.0673 |
| O=C1c2c(O)cc(O)cc2OC(c2ccc(O)c(O)c2)C1O (centres undefined) [(?)-Taxifolin] + C=CCn1c(=O)c2cnc(Nc3ccc(N4CCN(C)CC4)cc3)nc2n1-c1cccc(C(C)(C)O)n1 [MK1775] | inactive: -1.33 |
| C[C@H]1C[C@H]2[C@@H]3CCC4=CC(=O)C=C[C@]4(C)[C@@]3(Cl)[C@@H](O)C[C@]2(C)[C@@]1(O)C(=O)CO [Beclomethasone] + C=CCn1c(=O)c2cnc(Nc3ccc(N4CCN(C)CC4)cc3)nc2n1-c1cccc(C(C)(C)O)n1 [MK1775] | inactive: -0.0869 |
| COc1cc2nc(N3CCN(C(=O)C4CCCO4)CC3)nc(N)c2cc1OC (centres undefined) [Terazosin hydrochloride] + C=CCn1c(=O)c2cnc(Nc3ccc(N4CCN(C)CC4)cc3)nc2n1-c1cccc(C(C)(C)O)n1 [MK1775] | inactive: 0.393 |
| Oc1ccc(O)cc1 [Hydroquinone] + C=CCn1c(=O)c2cnc(Nc3ccc(N4CCN(C)CC4)cc3)nc2n1-c1cccc(C(C)(C)O)n1 [MK1775] | inactive: -0.969 |
| CN1CCN(c2cccc(Nc3nc4c(-c5ccc(S(C)(=O)=O)cc5)cccn4n3)c2)CC1 + C=CCn1c(=O)c2cnc(Nc3ccc(N4CCN(C)CC4)cc3)nc2n1-c1cccc(C(C)(C)O)n1 [MK1775] | inactive: 0.00517 |
| Cc1nc(N=Nc2ccc(C(=O)O)cc2)c(COP(=O)(O)O)c(C=O)c1O + C=CCn1c(=O)c2cnc(Nc3ccc(N4CCN(C)CC4)cc3)nc2n1-c1cccc(C(C)(C)O)n1 [MK1775] | inactive: -0.466 |
| CNCCC=C1c2ccccc2CCc2ccccc21 [Nortriptyline hydrochloride] + C=CCn1c(=O)c2cnc(Nc3ccc(N4CCN(C)CC4)cc3)nc2n1-c1cccc(C(C)(C)O)n1 [MK1775] | inactive: -0.267 |

Fetched one by one from the list above:

| SMILES | Z' of S-phase gammaH2AX difference (Z-score) |
| --- | --- |
| COc1cc2c(cc1OC)[C@@H](c1ccccc1)CN(C)CC2 + C=CCn1c(=O)c2cnc(Nc3ccc(N4CCN(C)CC4)cc3)nc2n1-c1cccc(C(C)(C)O)n1 [MK1775] | inactive: -0.2 |
| O=C1c2ccccc2C(=O)c2c(NCCc3ccc(O)cc3)ccc(NCCc3ccc(O)cc3)c21 + C=CCn1c(=O)c2cnc(Nc3ccc(N4CCN(C)CC4)cc3)nc2n1-c1cccc(C(C)(C)O)n1 [MK1775] | inactive: -0.0673 |

Continuation:

| SMILES | Z' of S-phase gammaH2AX difference (Z-score) |
| --- | --- |
| CCc1c2c(nc3ccc(OC(=O)N4CCC(N5CCCCC5)CC4)cc13)-c1cc3c(c(=O)n1C2)COC(=O)[C@]3(O)CC [Irinotecan HCl Trihydrate (Campto)] + C=CCn1c(=O)c2cnc(Nc3ccc(N4CCN(C)CC4)cc3)nc2n1-c1cccc(C(C)(C)O)n1 [MK1775] | active: 6.5 |
| Cc1ccc(/C(=C\CN2CCCC2)c2ccccn2)cc1 [Triprolidine hydrochloride] + C=CCn1c(=O)c2cnc(Nc3ccc(N4CCN(C)CC4)cc3)nc2n1-c1cccc(C(C)(C)O)n1 [MK1775] | inactive: -0.27 |
| O=c1onc2n1-c1cc(Br)ccc1OC2 + C=CCn1c(=O)c2cnc(Nc3ccc(N4CCN(C)CC4)cc3)nc2n1-c1cccc(C(C)(C)O)n1 [MK1775] | inactive: 0.32 |
| CCC[C@H](NC(=O)/C(C#N)=C/c1cccc(Br)n1)c1ccccc1 + C=CCn1c(=O)c2cnc(Nc3ccc(N4CCN(C)CC4)cc3)nc2n1-c1cccc(C(C)(C)O)n1 [MK1775] | inactive: -0.39 |
| Nc1ncnc2c1ncn2[C@@H]1O[C@H](COP(=O)(O)CP(=O)(O)OP(=O)(O)O)[C@H](O)C1O (stereo partly drawn) [alpha,beta-Methylene adenosine 5'-triphosphate dilithium] + C=CCn1c(=O)c2cnc(Nc3ccc(N4CCN(C)CC4)cc3)nc2n1-c1cccc(C(C)(C)O)n1 [MK1775] | inactive: 0.00485 |
| CCOc1cc2ncc(C#N)c(Nc3ccc(OCc4ccccn4)c(Cl)c3)c2cc1NC(=O)/C=C/CN(C)C [Neratinib (HKI-272)] + C=CCn1c(=O)c2cnc(Nc3ccc(N4CCN(C)CC4)cc3)nc2n1-c1cccc(C(C)(C)O)n1 [MK1775] | inactive: 0.00222 |
| NC(=O)c1ncn([C@@H]2O[C@H](CO)[C@@H](O)[C@H]2O)c1O [Mizoribine] + C=CCn1c(=O)c2cnc(Nc3ccc(N4CCN(C)CC4)cc3)nc2n1-c1cccc(C(C)(C)O)n1 [MK1775] | inactive: -0.864 |
| Cc1ccc(C(=O)Nc2ccc(S(=O)(=O)O)c3cc(S(=O)(=O)O)cc(S(=O)(=O)O)c23)cc1NC(=O)c1cccc(NC(=O)Nc2cccc(C(=O)Nc3cc(C(=O)Nc4ccc(S(=O)(=O)O)c5cc(S(=O)(=O)O)cc(S(=O)(=O)O)c45)ccc3C)c2)c1 [Suramin hexasodium] + C=CCn1c(=O)c2cnc(Nc3ccc(N4CCN(C)CC4)cc3)nc2n1-c1cccc(C(C)(C)O)n1 [MK1775] | inactive: 0.319 |
| N#CC(c1ccnc(NCCc2cccnc2)n1)c1nc2ccccc2s1 (centres undefined) [JNK Inhibitor V] + C=CCn1c(=O)c2cnc(Nc3ccc(N4CCN(C)CC4)cc3)nc2n1-c1cccc(C(C)(C)O)n1 [MK1775] | inactive: -0.282 |
| CN(N=O)C(=O)N[C@@H](C=O)[C@@H](O)[C@H](O)[C@H](O)CO [Streptozotocin (Zanosar)] + C=CCn1c(=O)c2cnc(Nc3ccc(N4CCN(C)CC4)cc3)nc2n1-c1cccc(C(C)(C)O)n1 [MK1775] | inactive: 0.0584 |
| Cn1cc(C2=C(c3ccc(Cl)cc3Cl)C(=O)NC2=O)c2ccccc21 + C=CCn1c(=O)c2cnc(Nc3ccc(N4CCN(C)CC4)cc3)nc2n1-c1cccc(C(C)(C)O)n1 [MK1775] | inactive: -0.365 |
| CC(N)(C(=O)O)c1ccc(C(=O)O)cc1 (stereo not drawn) [(?)-alpha-Methyl-4-carboxyphenylglycine] + C=CCn1c(=O)c2cnc(Nc3ccc(N4CCN(C)CC4)cc3)nc2n1-c1cccc(C(C)(C)O)n1 [MK1775] | inactive: -0.65 |
| CC#CCOC(=O)c1c(C)nc2sc3c(c2c1N)CCC(O)C3 (centres undefined) + C=CCn1c(=O)c2cnc(Nc3ccc(N4CCN(C)CC4)cc3)nc2n1-c1cccc(C(C)(C)O)n1 [MK1775] | inactive: -1.81 |
| Cn1c(=O)c2[nH]c(-c3ccc(S(=O)(=O)O)cc3)nc2n(C)c1=O [8-(p-Sulfophenyl)theophylline] + C=CCn1c(=O)c2cnc(Nc3ccc(N4CCN(C)CC4)cc3)nc2n1-c1cccc(C(C)(C)O)n1 [MK1775] | inactive: -0.381 |
| C[C@@H]1O[C@@H]1P(=O)(O)O [Phosphomycin disodium] + C=CCn1c(=O)c2cnc(Nc3ccc(N4CCN(C)CC4)cc3)nc2n1-c1cccc(C(C)(C)O)n1 [MK1775] | inactive: -0.228 |
| C[C@]12C=CC(=O)C=C1CC[C@@H]1C2=CC[C@]2(C)[C@@H](C(=O)CN3CCN(c4cc(N5CCCC5)nc(N5CCCC5)n4)CC3)CC[C@@H]12 + C=CCn1c(=O)c2cnc(Nc3ccc(N4CCN(C)CC4)cc3)nc2n1-c1cccc(C(C)(C)O)n1 [MK1775] | inactive: 0.367 |
| NC(=O)c1cc[n+](CC2=C(C(=O)O)N3C(=O)[C@@H](NC(=O)C(c4ccccc4)S(=O)(=O)[O-])[C@H]3SC2)cc1 (some centres undefined) [Cefsulodin sodium salt hydrate] + C=CCn1c(=O)c2cnc(Nc3ccc(N4CCN(C)CC4)cc3)nc2n1-c1cccc(C(C)(C)O)n1 [MK1775] | inactive: 0.518 |
